Results on two substances are retold here after PMC5369006.

This test deals with T1, PaATG8 (amino acids 1 to 115), yeast two-hybrid bait (Podospora anserina) (UniProt Q8J282).
T1 sequence: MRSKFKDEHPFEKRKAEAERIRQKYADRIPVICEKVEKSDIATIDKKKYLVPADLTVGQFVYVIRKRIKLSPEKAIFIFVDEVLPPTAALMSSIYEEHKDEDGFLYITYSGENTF
As to the kind of experiment: two-hybrid; library screen: LexA-PaATG8 (1-115) bait in pLexA-DIR, P. anserina cDNA library (rapamycin-treated cultures) in pGAD-HA as prey, yeast NMY32; growth on medium lacking tryptophan, leucine and histidine and quantitative beta-galactosidase assay.

These are yes or no findings as the source states them, for the method shown. Binding calls can cover weak binding; strength is not graded here.

Take “Pa_4_2219, prey of the cDNA library (Podospora anserina)”: the binding entry was “binds”.
Regarding “Pa_2_2450, prey of the cDNA library (Podospora anserina)”, the binding entry is listed as “binds”.
